Experimental data as given in article PMC7819943, “Rice protein-binding microarrays: a tool to detect cis-acting elements near promoter regions in rice”.
This is one part of the list.

target: T1, OsSMF1 (Oryza sativa, UniProt Q6ZLB0 1-436); experiment: protein-binding microarray (RPBM); PBS, 2% BSA, 51.3 ng/ul salmon testes DNA, 50 uM zinc acetate, 200 nM TF, 25 C, 1 h; high values mean tight binding; conditions: protein: recombinant; tags: N-terminal polyhistidine and DsRed monomer fusion (pET32a); chain copies: 2; label: CyDye5-dUTP incorporated in the synthesized complementary strand; 3' TTTTT single-stranded linker to array surface; dsDNA, one strand shown
T1 sequence: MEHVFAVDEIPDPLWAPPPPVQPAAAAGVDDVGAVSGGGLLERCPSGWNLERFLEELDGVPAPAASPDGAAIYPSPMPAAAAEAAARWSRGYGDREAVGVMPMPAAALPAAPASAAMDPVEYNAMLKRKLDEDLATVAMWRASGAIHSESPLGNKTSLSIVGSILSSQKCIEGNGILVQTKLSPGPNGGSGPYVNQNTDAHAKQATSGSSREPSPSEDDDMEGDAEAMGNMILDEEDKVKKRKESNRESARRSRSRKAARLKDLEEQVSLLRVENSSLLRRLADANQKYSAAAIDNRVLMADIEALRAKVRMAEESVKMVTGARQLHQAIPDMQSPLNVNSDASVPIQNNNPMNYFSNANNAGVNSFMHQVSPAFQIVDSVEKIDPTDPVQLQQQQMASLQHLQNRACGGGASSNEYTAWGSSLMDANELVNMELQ
Procedure, shortened: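 Using Ni–NTA, transcription factors fused N-terminally to polyhistidine and DsRed were purified after expression in E. coli BL21-CodonPlus. These were incubated at 200 nM with a blocked, double-stranded custom Agilent array for 1 h at 25 °C in a buffer containing 50 µM zinc acetate, and the array was washed. The binding signal is per-feature fluorescence intensity (arbitrary units) on an Axon 4000B scanner.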

Sequence	binding signal
GCTTGAGAGGAAGGGGATAAGCTAACCGGCATATATGTCTCGGAGTCACCTAGTGCAG	3340 fluorescence intensity (a.u.)
TACTATAGACTAGCAAATGCCAAATGACAAATTGCCAAGTCGGAGTCACCTAGTGCAG	15800 fluorescence intensity (a.u.)
AATTCTTCGGGTCCTGGTGTTGATGATTCACATCTTTGGCCGGAGTCACCTAGTGCAG	4920 fluorescence intensity (a.u.)
ATGGTGGAGAAGGTGACGATGACACGAGGTGATCTGGATCCGGAGTCACCTAGTGCAG	3680 fluorescence intensity (a.u.)
GGAGAAATCAGAAATCGGCGTCTCCACCTCATCGCCCATCCGGAGTCACCTAGTGCAG	4890 fluorescence intensity (a.u.)
GTTTGAGATGTGTAATAAAGGATCGATCTTGTTGACGATCCGGAGTCACCTAGTGCAG	3530 fluorescence intensity (a.u.)
AGAACATGCTGCTTGTTGTGACTGCACCGACGTCTTTCGTCGGAGTCACCTAGTGCAG	3140 fluorescence intensity (a.u.)
GCTGTCCCTATATACACAACATTTGACCAAGATGATGACGCGGAGTCACCTAGTGCAG	3480 fluorescence intensity (a.u.)
ACTAAGACCGAGCTCATTGGAGGAGCTGATGTGTACATGCCGGAGTCACCTAGTGCAG	5620 fluorescence intensity (a.u.)
GAACGGCGCTCGCCGCCATCACCGACGGTAACGCGCATGCCGGAGTCACCTAGTGCAG	27900 fluorescence intensity (a.u.)
CTTGACGGGCTAGGGCCATAACTGAGCATTGCCACGTCAGCGGAGTCACCTAGTGCAG	14600 fluorescence intensity (a.u.)
AGGCAACGACACGGCATGCGCACCTGTGTCCTTGTGGTTGCGGAGTCACCTAGTGCAG	4640 fluorescence intensity (a.u.)
AACTTCATATGTGTAATAAGAGATTTGTTGACAGCCTTGTCGGAGTCACCTAGTGCAG	3150 fluorescence intensity (a.u.)
CTACTTCCAGTTCCCAACCATGTTTATGGCCAAACATCACCGGAGTCACCTAGTGCAG	33800 fluorescence intensity (a.u.)
GCACATGTGTCGCCGTCGTGTCGGCCCCATTCTCCGGGCGCGGAGTCACCTAGTGCAG	3690 fluorescence intensity (a.u.)
GGCCTCGCCCATGCCCGGGCCCACACGTCAGCGGGACACCCGGAGTCACCTAGTGCAG	12500 fluorescence intensity (a.u.)
AGTGCCTATGTGGCGTTGACGTGGCGCTTACGTGGCAATTCGGAGTCACCTAGTGCAG	27500 fluorescence intensity (a.u.)
ATTATATTGATCAATGACTCTGCTACTACTGCTCCCATATCGGAGTCACCTAGTGCAG	3720 fluorescence intensity (a.u.)
CACGCACGTACATCGCGCGCGCCACGCCACGCCACGCCGCCGGAGTCACCTAGTGCAG	8370 fluorescence intensity (a.u.)
TATGTGGACCATAGTGGCCTTCGGCAATATGGATTAGTAGCGGAGTCACCTAGTGCAG	47700 fluorescence intensity (a.u.)
CCAGTGTTGAAATTAGTTGTTATTGTTCGTCACATCATCCCGGAGTCACCTAGTGCAG	7320 fluorescence intensity (a.u.)
GGTGCGTGCGTACACATCCGCGCCGTGCATGCCAAGCCGGCGGAGTCACCTAGTGCAG	4160 fluorescence intensity (a.u.)
CCAAATTAACCCACGTTCACCTGACGCTAGCACGTTTCAGCGGAGTCACCTAGTGCAG	7380 fluorescence intensity (a.u.)

Given as a markdown table: part of the list above.

| Sequence | binding signal |
| --- | --- |
| GAACGGCGCTCGCCGCCATCACCGACGGTAACGCGCATGCCGGAGTCACCTAGTGCAG | 27900 fluorescence intensity (a.u.) |
| CTTGACGGGCTAGGGCCATAACTGAGCATTGCCACGTCAGCGGAGTCACCTAGTGCAG | 14600 fluorescence intensity (a.u.) |
